Results reported in publication PMC7283332.
These are yes or no findings as the source states them, for the method shown. Sequences can lack the tags named with a protein.

Chains of the proteins cited; added tags and fusions are not shown. Lines headed by an entry give the natural chain unless they say otherwise; changes in a name come on top. A line that says so, or that is headed by a name, gives the form on record, which may keep a tag or linker.
Fc-iNKG2D.YA (P26718, form named): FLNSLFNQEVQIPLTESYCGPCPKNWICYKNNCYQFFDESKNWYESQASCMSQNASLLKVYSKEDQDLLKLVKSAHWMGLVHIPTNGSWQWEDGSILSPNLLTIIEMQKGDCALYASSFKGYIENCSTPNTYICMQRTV

B1: MICA*001 α1α2 domain, C-terminal 6×-His (domain or fragment, UniProt Q29983 24-205)
chain: EPHSLRYNLTVLSWDGSVQSGFLTEVHLDGQPFLRCDRQKCRAKPQGQWAEDVLGNKTWDRETRDLTGNGKDLRMTLAHIKDQKEGLHSLQEIRVCEIHEDNSTRSSQHFYYDGELFLSQNLETKEWTMPQSSRAQTLAMNVRNFLKEDAMKTKTHYHAMHADCLQELRRYLKSGVVLRRTV
B2: MICB α1α2 domain, C-terminal 6×-His (domain or fragment, UniProt Q29980 24-205)
chain: EPHSLRYNLMVLSQDGSVQSGFLAEGHLDGQPFLRYDRQKRRAKPQGQWAENVLGAKTWDTETEDLTENGQDLRRTLTHIKDQKGGLHSLQEIRVCEIHEDSSTRGSRHFYYDGELFLSQNLETQESTVPQSSRAQTLAMNVTNFWKEDAMKTKTHYRAMQADCLQKLQRYLKSGVAIRRTV
B3: ULBP1 α1α2 domain, C-terminal 6×-His (domain or fragment, UniProt Q9BZM6 29-212)
chain: DTHCLCYDFIITPKSRPEPQWCEVQGLVDERPFLHYDCVNHKAKAFASLGKKVNVTKTWEEQTETLRDVVDFLKGQLLDIQVENLIPIEPLTLQARMSCEHEAHGHGRGSWQFLFNGQKFLLFDSNNRKWTALHPGAKKMTEKWEKNRDVTMFFQKISLGDCKMWLEEFLMYWEQMLDPTKPPS
B4: ULBP3 α1α2 domain, C-terminal 6×-His (domain or fragment, UniProt Q9BZM4 30-212)
chain: DAHSLWYNFTIIHLPRHGQQWCEVQSQVDQKNFLSYDCGSDKVLSMGHLEEQLYATDAWGKQLEMLREVGQRLRLELADTELEDFTPSGPLTLQVRMSCECEADGYIRGSWQFSFDGRKFLLFDSNNRKWTVVHAGARRMKEKWEKDSGLTTFFKMVSMRDCKSWLRDFLMHRKKRLEPTAPP
B5: ULBP5 α1α2 domain, C-terminal 6×-His (domain or fragment, UniProt Q6H3X3-1 29-212)
chain: DPHSLCYDITVIPKFRPGPRWCAVQGQVDEKTFLHYDCGSKTVTPVSPLGKKLNVTTAWKAQNPVLREVVDILTEQLLDIQLENYIPKEPLTLQARMSCEQKAEGHGSGSWQLSFDGQIFLLFDSENRMWTTVHPGARKMKEKWENDKDMTMSFHYISMGDCTGWLEDFLMGMDSTLEPSAGAP
B6: ULBP6 α1α2 domain, C-terminal 6×-His (domain or fragment, UniProt Q5VY80 29-212)
chain: DPHSLCYDITVIPKFRPGPRWCAVQGQVDEKTFLHYDCGNKTVTPVSPLGKKLNVTMAWKAQNPVLREVVDILTEQLLDIQLENYTPKEPLTLQARMSCEQKAEGHSSGSWQFSIDGQTFLLFDSEKRMWTTVHPGARKMKEKWENDKDVAMSFHYISMGDCIGWLEDFLMGMDSTLEPSAGAP

These binders were tested against Fc-iNKG2D.YA (human) (UniProt P26718) (assay: BLI; FortéBio Octet; Fc-wtNKG2D, Fc-iNKG2D.YA or Fc-iNKG2D.AF captured on anti-human IgG Fc capture (AHC) biosensor tips; titration series of monomeric MIC-His ligands or monomeric ULBP2 variants; both purified).

binding, no binding:
B1
B2
B3
B4
B5
B6
